The campaign covered roughly 360,000 compounds. About 7,500 (2.1%) were called active. Inconclusive means that the source gave no clear call. Such entries were picked first, then a sample of the others. Calls follow the shape of the dose curve; as a rule, active = well fitted inhibition curve with a large enough effect; inconclusive = small, poorly fitted or top-dose-only effect, or effect the other way; inactive = flat fitted curve, though single readings scatter. Potencies of inconclusive entries are doubtful fits and often do not repeat.
Test: Nrf2 qHTS screen for inhibitors; also: nearly all actives have a fitted effect of over 60% in size
Conditions: A549 ARE-Fluc reporter, luciferase luminescence, 18-24 h; activity change, negative = inhibition: at 46 µM (top of the series)
Summary of the method: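 Cells were seeded and rested 2 h, then exposed to compounds for 18-24 h. CellTiter-Fluor was read first as a viability measure. BugLite was added 15 min before the final luminescent read of ARE-luciferase activity in A549 cells.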
% is scaled to controls: 0 for no effect and ±100 for the full control effect; potency is read from the fitted curve at half-maximal effect.

SMILES | activity change, negative = inhibition | Potency
COc1ccc(S(=O)(=O)N2CCCN(Cc3cccc(F)c3)CC2)cc1 | inactive: -11.5% | 
O=C(COn1nnc2ccccc21)N1CCN(Cc2ccccc2)CC1 |  | inconclusive: 10.3 µM [activator, partial curve]
Cc1cccn2c(=O)c3cc(C(=O)NCCN4CCOCC4)c(=N)n(Cc4ccc(F)cc4)c3nc12 |  | active: 16.4 µM
Cc1oc(-c2cccs2)nc1CSCC(=O)NC1CC1 | inactive: 6.54% | 
CSC1=NSC2=NC(=O)/C(=C\c3ccc(OC(=O)c4ccco4)cc3)C(=N)N12 |  | inconclusive: 29.1 µM [activator, single point]
CCn1cc(Br)c(C(=O)Nc2ccc(Cl)c(Cl)c2)n1 |  | inconclusive: 6.51 µM [activator, partial curve]
CCOC(=O)Cc1ccc(NC(=O)NCc2cccn2Cc2ccccc2)cc1 | inactive: -12.1% | 
Cc1ccc(NC(=O)CSc2nc(-c3cccs3)nc3cc(=O)[nH]n23)cc1 |  | inconclusive: 29.1 µM [activator, single point]
CC(=O)n1c(C=Nc2ccccc2)c(O)c2ccccc21 |  | inconclusive: 0.231 µM [activator, full curve, poor fit]
CN(c1ccccc1)S(=O)(=O)c1ccc(C(=O)NCc2ccccn2)cc1 |  | inconclusive: 23.1 µM [falling, single point]
Cc1ccc(N2CCN(C(=O)c3cc(-c4ccc(F)cc4)[nH]c3C)CC2C)cc1 (configuration not stated) |  | inconclusive: 29.1 µM [falling, single point]
CC(C)CC(COCc1cccc(Cl)c1)N1CCN(C(=O)c2ccc(C(F)(F)F)cc2)CCC1=O (configuration not stated) |  | inconclusive: 29.1 µM [falling, single point]
COc1cccc(CNc2ccc(F)c(Cl)c2)c1OC |  | inconclusive: 23.1 µM [falling, partial curve, poor fit]
COc1ccc2c(c1)C(=O)N1[C@H]3c4cc(OC)ccc4OC[C@@H]3[C@H](c3ccccc3)[C@]1(C)C(=O)N2 |  | inconclusive: 2.06 µM [activator, partial curve, poor fit]
CC(C)=C[C@@H]1C[C@H](C)[C@H]2CC[C@H](C)c3c(O)c(O)c(C)c1c32 | inactive: -14.4% | 
COc1cc(SC)ccc1C(=O)Nc1ccc(C)cc1C |  | inconclusive: 14.6 µM [activator, partial curve]
CCCNC(=O)N1[C@H](c2ccc(C)s2)[C@@H](C)C(=O)[C@@H](C)[C@@H]1c1ccc(C)s1 |  | inconclusive: 29.1 µM [activator, single point]
c1ccc(-c2cn3nc(-c4ccccc4)c(-c4ccccc4)nc3n2)cc1 |  | inconclusive: 4.61 µM [falling, partial curve, poor fit]
Cc1ccc(C(=O)NNC(=O)c2ccncc2)cc1S(=O)(=O)N1CCCCC1 | inactive: -7.77% | 
Cc1cccc(NC(=O)CN2CCc3cc4c(cc3C2)OCCCO4)c1 |  | inconclusive: 29.1 µM [falling, single point]
Nc1cc(=O)[nH]c(SCc2ccc(Cl)cc2Cl)n1 |  | inconclusive: 18.4 µM [falling, single point]
COc1cc(OC)c(OC)cc1/C=C1\CCC(C2CCCC2)C1=O (configuration not stated) | inactive: -9.48% | 
O=C(CO/N=C1\CCCc2nonc21)Nc1ccccc1Cl |  | inconclusive: 9.2 µM [activator, partial curve, poor fit]

SMILES | activity change, negative = inhibition | Potency
COc1ccc(Oc2c(C)oc3c(CN4CCOCC4)c(O)ccc3c2=O)cc1 | inactive: 3.78% | 
O=C(NCc1ccccc1)C1CC2CCCC(C1)C2=O (configuration not stated) |  | inconclusive: 7.31 µM [falling, single point]
CCCCc1nc2cc(C(=O)N3CCCCC3CC(=O)OCC)ccc2o1 (configuration not stated) |  | inconclusive: 5.17 µM [activator, full curve, poor fit]
Cc1ccc(-c2nc3nc4ccccc4nc3n2Cc2ccco2)cc1 |  | inconclusive: 2.31 µM [activator, full curve]
Cn1c(=O)[nH]c(=O)c2c1nc(N1CCCCC1)n2CCCSc1nc2ccccc2s1 |  | inconclusive: 0.0073 µM [falling, full curve, poor fit]
CCNS(=O)(=O)c1cccc(C(=O)c2c(C)cc3ccccn23)c1 |  | inconclusive: 8.2 µM [falling, partial curve]
C#CCSc1nnc(-c2sc3ccccc3c2Cl)o1 |  | inconclusive: 11.6 µM [activator, partial curve]
C=CCOc1ccc2cccc(/C=N/NC(=O)c3cc4cc([N+](=O)[O-])ccc4s3)c2c1 | inactive: -3.35% | 
COc1cccc(CN2CCN(Cc3cccc(Oc4ccccc4)c3)CC2)c1OC |  | inconclusive: 18.4 µM [falling, single point]
CCN1C(=O)[C@H]2[C@@H](c3ccc(-c4ccc(F)cc4)c(OC)c3)N3CCCC[C@@]3(C(=O)OC)[C@H]2C1=O |  | inconclusive: 20.6 µM [falling, single point]
O=C(/C=C/c1ccccc1)Nc1cccc(S(=O)(=O)Nc2ccccc2F)c1 |  | inconclusive: 25.9 µM [falling, partial curve, poor fit]
Cc1ccc(CSc2nc3c(c(=O)[nH]c(=O)n3C)n2CCC(C)C)cc1 |  | inconclusive: 25.9 µM [falling, partial curve, poor fit]
COc1ccc(Cc2nnc(SCC(=O)N3CCCC(C)C3)o2)cc1 (configuration not stated) |  | inconclusive: 13 µM [falling, partial curve]
CN(C)c1ccc(-c2c(C3C4C=CCCC4(C)C(=O)N3Cc3ccccc3)ccc3ccccc23)cc1 (configuration not stated) | inactive: -22.1% | 
CCOc1ccc(C(=O)c2cn(Cc3ccc(Cl)cc3)c3cc(OC)c(OC)cc3c2=O)cc1 |  | inconclusive: 8.2 µM [falling, partial curve, poor fit]
CCC(Cc1ccccc1)NC(=O)Cn1ncc2c3ccccc3n(Cc3ccccc3)c2c1=O (configuration not stated) |  | inconclusive: 23.1 µM [falling, single point]
CCCn1cnc2c(c1=O)c1nc3ccccc3nc1n2CCc1ccccc1 |  | inconclusive: 0.731 µM [falling, partial curve, poor fit]
O=C(COC(=O)CCN1C(=O)/C(=C\C=C\c2ccccc2)SC1=S)Nc1ccc(Br)cc1 |  | inconclusive: 2.06 µM [falling, full curve]
CC(=C\c1ccco1)/C=C1/SC(=S)N(CC(=O)O)C1=O |  | inconclusive: 18.4 µM [activator, partial curve]
Cc1ccc2c(c1)NC(=O)C(CC(=O)Nc1ccccc1Cl)O2 (configuration not stated) |  | inconclusive: 0.411 µM [falling, full curve, poor fit]
CCCC(=O)Nc1cc(C)c(NC(=O)c2ccccn2)cn1 |  | inconclusive: 29.1 µM [activator, single point]
CC(=O)N1CCc2cc(S(=O)(=O)NCCC(=O)NCCc3ccc(Cl)cc3)ccc21 |  | inconclusive: 29.1 µM [falling, single point]
Cc1ccc(Cn2ccc(NC(=O)c3cc(-c4cccc(Cl)c4)on3)n2)cc1 |  | active: 20.6 µM

Filtered by structure, the entries above containing a thiophene ring, fused or not
SMILES | activity change, negative = inhibition | Potency
Cc1oc(-c2cccs2)nc1CSCC(=O)NC1CC1 | inactive: 6.54% | 
Cc1ccc(NC(=O)CSc2nc(-c3cccs3)nc3cc(=O)[nH]n23)cc1 |  | inconclusive: 29.1 µM [activator, single point]
CCCNC(=O)N1[C@H](c2ccc(C)s2)[C@@H](C)C(=O)[C@@H](C)[C@@H]1c1ccc(C)s1 |  | inconclusive: 29.1 µM [activator, single point]
C#CCSc1nnc(-c2sc3ccccc3c2Cl)o1 |  | inconclusive: 11.6 µM [activator, partial curve]
C=CCOc1ccc2cccc(/C=N/NC(=O)c3cc4cc([N+](=O)[O-])ccc4s3)c2c1 | inactive: -3.35% | 

(next part)

SMILES | activity change, negative = inhibition | Potency
COc1ccc(NC(=O)c2cccc(Oc3ccccc3)c2)cn1 |  | active: 25.9 µM
CC(C)NC(=O)c1ccccc1NS(=O)(=O)c1ccc(Br)s1 |  | inconclusive: 23.1 µM [falling, partial curve]
C/C(=C\c1ccccc1)C(=O)NCc1ccco1 |  | inconclusive: 32.6 µM [activator, single point]
CCOC(=O)COc1ccc(C)cc1C(=O)c1ccn2nc(-c3ccc(C)cc3)cc2n1 | inactive: 6.63% | 
O=C(CSc1ncc2c(n1)-c1ccccc1N(Cc1ccccc1)S2(=O)=O)Nc1ccccc1 | inactive: 0% | 
Cc1cc(NC(=O)CSc2nnc(COc3ccccc3)n2Cc2ccco2)no1 | inactive: -13% | 
Cc1ccc(S(=O)(=O)N2C(=O)c3cccc4cccc2c34)cc1 |  | active: 14.6 µM
Cc1ccc(C(=O)NCCCC(=O)O)o1 |  | inconclusive: 0.517 µM [falling, partial curve, poor fit]
O=C(OCc1ccc(Br)cc1)c1ccncc1 | inactive: 2.27% | 
O=C1c2cc(F)ccc2-n2c1nc1ccccc1c2=O |  | active: 6.51 µM
Cc1ccccc1NC(=O)Nc1ccc(C(F)(F)F)cc1 |  | inconclusive: 29.1 µM [falling, single point]
COc1ccc(Cc2nc3ccccc3[nH]2)cc1OC |  | inconclusive: 13 µM [falling, partial curve]
CCCCc1c(C(=O)O)cc(OC)cc1C(=O)O |  | inconclusive: 0.731 µM [activator, full curve, poor fit]
C/C(=N\NC(=O)CC1N=C(Cc2ccccc2)NNC1=O)c1ccc(C)cc1 (configuration not stated) |  | inconclusive: 9.2 µM [falling, single point]
CC(=O)N(Cc1ccc(F)cc1)C1=C(NCCc2ccccc2)C(=O)c2ccccc2C1=O |  | active: 20.6 µM
CCCN1C(=O)C(Cc2nc3ccccc3c(=O)n2-c2ccccc2)c2cc(C)ccc21 (configuration not stated) |  | inconclusive: 29.1 µM [falling, single point]
COc1ccc(OCc2cc(C(=O)N3CCCN(C(C)=O)CC3)no2)c(Cl)c1 |  | inconclusive: 20.6 µM [activator, partial curve, poor fit]
COc1ccc2[nH]c3c(c2c1)CCN1C(=O)C(CC(=O)NCc2ccco2)C[C@H](C(=O)N2CCCCC2)[C@@]31CCc1ccccc1 (some centres not stated) |  | active: 23.1 µM
CCN(CC)c1ccc2cc(NC(=O)CCC(=O)O)c(=O)oc2c1 |  | active: 11.6 µM
CCN(CC)S(=O)(=O)c1cc(C(=O)OC)ccc1Cl |  | inconclusive: 2.59 µM [activator, partial curve, poor fit]
CC1(C)CC(C(CCN(Cc2ccccc2)C(=O)c2ccco2)c2ccc(F)cc2)CCO1 (configuration not stated) |  | inconclusive: 25.9 µM [falling, single point]
